Source: PMC5075789, “Orphan GPR110 (ADGRF1) targeted by N-docosahexaenoylethanolamine in development of neurons and cognitive function” (Nature Communications, 2016)
Results are given in words; binding and its absence hold for the method and conditions named. Binding seen in cells or lysates may run through a third protein. Some binding calls cover weakened binding; strength is not graded here. Tags and fused reporters may be left off the sequences shown. Blank lines part the entries; values can stand above or below the molecule they belong to.

Amino acid sequences for entries named in this document (tags omitted).
UniProt P63092: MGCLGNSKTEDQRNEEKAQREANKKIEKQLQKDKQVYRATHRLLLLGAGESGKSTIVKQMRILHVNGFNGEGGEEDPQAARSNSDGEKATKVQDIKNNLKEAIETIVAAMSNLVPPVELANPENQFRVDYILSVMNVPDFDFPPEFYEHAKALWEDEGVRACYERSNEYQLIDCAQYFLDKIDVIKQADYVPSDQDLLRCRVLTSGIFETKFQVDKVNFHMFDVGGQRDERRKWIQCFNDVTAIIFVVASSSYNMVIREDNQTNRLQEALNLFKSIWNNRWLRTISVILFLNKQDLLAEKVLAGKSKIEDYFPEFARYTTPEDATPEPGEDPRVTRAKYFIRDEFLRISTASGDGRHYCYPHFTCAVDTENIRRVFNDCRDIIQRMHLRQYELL
UniProt P50148: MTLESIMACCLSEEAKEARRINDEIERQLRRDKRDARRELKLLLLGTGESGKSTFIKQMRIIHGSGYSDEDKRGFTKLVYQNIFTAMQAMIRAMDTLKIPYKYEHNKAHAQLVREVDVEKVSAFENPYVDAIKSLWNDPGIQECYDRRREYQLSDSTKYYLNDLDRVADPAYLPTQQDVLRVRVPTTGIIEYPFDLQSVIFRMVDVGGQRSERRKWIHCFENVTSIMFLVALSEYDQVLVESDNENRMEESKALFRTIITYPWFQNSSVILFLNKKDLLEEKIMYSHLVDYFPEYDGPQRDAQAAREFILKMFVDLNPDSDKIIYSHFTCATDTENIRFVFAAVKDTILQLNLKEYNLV

Key:
[1] = molecular target: T1, GPR110-HA (species not named for this experiment) (not stated (human or mouse cDNA cloned)) (UniProt Q8VEC3); experiment: co-IP; HEK293 cells co-transfected with HA-tagged GPR110 and GFP-tagged Gαs; IP with anti-HA; blot with anti-GFP
T1 sequence: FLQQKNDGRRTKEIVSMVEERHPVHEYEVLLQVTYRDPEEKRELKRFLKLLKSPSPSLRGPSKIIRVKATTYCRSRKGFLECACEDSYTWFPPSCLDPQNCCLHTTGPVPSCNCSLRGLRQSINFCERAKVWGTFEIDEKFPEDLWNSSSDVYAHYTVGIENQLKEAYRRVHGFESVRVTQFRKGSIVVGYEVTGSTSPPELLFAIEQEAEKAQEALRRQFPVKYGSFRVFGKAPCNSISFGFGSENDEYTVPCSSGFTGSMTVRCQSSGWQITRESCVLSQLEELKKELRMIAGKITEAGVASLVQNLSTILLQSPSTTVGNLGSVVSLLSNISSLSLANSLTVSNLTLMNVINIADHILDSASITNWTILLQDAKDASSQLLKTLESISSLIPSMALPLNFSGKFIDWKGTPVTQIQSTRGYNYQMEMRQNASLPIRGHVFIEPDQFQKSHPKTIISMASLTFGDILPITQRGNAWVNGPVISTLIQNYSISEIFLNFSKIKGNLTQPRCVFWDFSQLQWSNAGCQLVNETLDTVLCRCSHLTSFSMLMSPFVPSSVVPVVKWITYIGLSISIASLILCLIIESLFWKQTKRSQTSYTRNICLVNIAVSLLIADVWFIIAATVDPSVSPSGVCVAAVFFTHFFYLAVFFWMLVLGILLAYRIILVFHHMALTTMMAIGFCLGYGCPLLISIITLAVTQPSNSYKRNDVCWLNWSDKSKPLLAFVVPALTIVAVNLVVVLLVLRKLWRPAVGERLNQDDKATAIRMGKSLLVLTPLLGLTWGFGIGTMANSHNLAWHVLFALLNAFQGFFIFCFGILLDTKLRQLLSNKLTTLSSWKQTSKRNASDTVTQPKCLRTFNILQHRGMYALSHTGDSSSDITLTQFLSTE

[2] = molecular target: T2, mouse GPR110-HA (C-terminal HA-tagged GPR110, ADGRF1) (mouse) (UniProt Q8VEC3); experiment: co-IP; HEK cells expressing mGPR110-HA lysed; lysate pre-cleared with protein A/G-agarose; IP with anti-HA antibody (1 mg total protein); blot with antibodies against Gαs/i/q; mouse IgG IP as control
T2 sequence: T1 sequence

[3] = molecular target: endogenous Gαs (human (endogenous in HEK293)) (UniProt P63092); experiment: co-IP; reversed IP: endogenous Gαs immunoprecipitated with anti-Gαs from lysate of HEK293 cells expressing GPR110-HA (1 mg total protein); blot with anti-HA

binding [1]: binds
Molecule: GFP-tagged Gαs (from UniProt P63092 1-394)

binding [2]: binds
Molecule: endogenous Gαs (from UniProt P63092 1-394)

Second part, the molecule before the results:

Molecule: Gαq (from UniProt P50148 1-359)
binding [2]: no binding

B1: GPR110-HA (species not named for this experiment) (receptor, UniProt Q8VEC3 21-908)
chain: T1 sequence
binding [3]: binds
